Assay [1] addresses Flag-tagged GPR31 (interactome bait) (human) (UniProt O00270). As to the kind of experiment: affinity purification with mass spectrometry; lysates of human hepatocyte cells with or without overexpression of Flag-tagged GPR31, immunoprecipitated with an anti-Flag antibody, LC-MS/MS; proteins with more than 2 unique peptides included.
For assay [2] the target is unchanged. Described as above. This is another data set of the same source.

Protein sequences, listed by entry. Tags and fused reporters are not part of them.
UniProt O00270: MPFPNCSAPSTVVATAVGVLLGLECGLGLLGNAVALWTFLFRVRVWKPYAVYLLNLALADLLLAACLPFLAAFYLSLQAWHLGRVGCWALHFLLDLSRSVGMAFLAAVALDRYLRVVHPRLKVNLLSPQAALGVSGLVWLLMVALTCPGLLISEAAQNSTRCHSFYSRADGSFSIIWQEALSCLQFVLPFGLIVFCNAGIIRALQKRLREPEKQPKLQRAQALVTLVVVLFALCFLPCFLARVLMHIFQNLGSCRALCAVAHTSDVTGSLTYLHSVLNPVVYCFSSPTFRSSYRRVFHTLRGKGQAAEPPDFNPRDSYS
UniProt P62873: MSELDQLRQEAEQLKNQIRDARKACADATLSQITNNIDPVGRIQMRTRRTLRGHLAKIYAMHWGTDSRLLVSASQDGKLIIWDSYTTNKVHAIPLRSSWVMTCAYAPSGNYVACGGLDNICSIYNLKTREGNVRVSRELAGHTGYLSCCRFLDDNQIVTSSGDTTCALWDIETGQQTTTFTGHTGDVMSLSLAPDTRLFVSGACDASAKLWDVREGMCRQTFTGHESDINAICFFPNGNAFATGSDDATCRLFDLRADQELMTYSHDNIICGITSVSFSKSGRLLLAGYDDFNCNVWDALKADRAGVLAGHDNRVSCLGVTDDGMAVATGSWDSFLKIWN
UniProt P63092: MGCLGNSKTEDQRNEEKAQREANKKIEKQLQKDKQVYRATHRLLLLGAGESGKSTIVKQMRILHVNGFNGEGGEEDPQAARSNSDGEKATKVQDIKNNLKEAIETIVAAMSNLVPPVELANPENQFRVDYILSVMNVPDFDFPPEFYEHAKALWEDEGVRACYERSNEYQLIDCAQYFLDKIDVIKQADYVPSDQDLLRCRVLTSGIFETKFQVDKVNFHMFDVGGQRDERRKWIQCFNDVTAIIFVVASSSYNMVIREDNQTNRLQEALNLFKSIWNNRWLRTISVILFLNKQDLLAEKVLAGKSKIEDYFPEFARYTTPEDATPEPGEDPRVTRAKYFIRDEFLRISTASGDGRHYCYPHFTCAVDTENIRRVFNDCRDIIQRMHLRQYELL
UniProt P62879: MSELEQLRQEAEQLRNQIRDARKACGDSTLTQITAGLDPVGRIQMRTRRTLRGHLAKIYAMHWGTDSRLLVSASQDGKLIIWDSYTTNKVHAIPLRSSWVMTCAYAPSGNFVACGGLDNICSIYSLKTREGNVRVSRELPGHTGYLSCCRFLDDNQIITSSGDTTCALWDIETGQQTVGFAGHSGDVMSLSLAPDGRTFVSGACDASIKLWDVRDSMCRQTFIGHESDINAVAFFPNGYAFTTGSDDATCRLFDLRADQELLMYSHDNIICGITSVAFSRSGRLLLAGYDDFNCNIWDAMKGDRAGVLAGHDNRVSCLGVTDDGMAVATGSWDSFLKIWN
UniProt P08754: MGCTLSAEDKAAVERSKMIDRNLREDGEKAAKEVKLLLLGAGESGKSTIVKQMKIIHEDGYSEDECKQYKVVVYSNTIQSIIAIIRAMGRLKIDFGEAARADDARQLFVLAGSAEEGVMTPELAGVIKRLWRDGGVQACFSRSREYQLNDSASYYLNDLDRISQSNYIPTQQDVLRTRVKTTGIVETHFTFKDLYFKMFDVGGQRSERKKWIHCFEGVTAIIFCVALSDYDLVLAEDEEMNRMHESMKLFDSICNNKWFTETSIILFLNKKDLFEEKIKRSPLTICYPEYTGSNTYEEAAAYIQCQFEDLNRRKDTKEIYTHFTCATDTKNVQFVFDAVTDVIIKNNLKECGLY

Like-named read-outs stand apart in the source and are kept apart here. No constants are given. Whether binding was seen depends on the method and setting. Binding seen in cells or lysates may run through a third protein. Here binding means that the protein was enriched with, or labelled near, the bait; the list need not be complete.

In article PMC12404741 one finds binding data, which are given here for six molecules.

Regarding “Gβ1 (hit of the GPR31 interactome) (from UniProt P62873 1-340)”, the binding result in assay [1] was “binds”.

In the case of “Gαs (hit of the GPR31 interactome) (from UniProt P63092 1-394)”, the binding entry in assay [1] is “binds”.

As to “Gβ2 (hit of the GPR31 interactome) (from UniProt P62879 1-340)”, in assay [1], the binding entry was “binds”.

As to “Gαi3 (hit of the GPR31 interactome) (from UniProt P08754 1-354)”, the binding entry in assay [1] is given as “binds”.

B1: STT3A (enzyme, UniProt P46977 1-705)
chain: MTKFGFLRLSYEKQDTLLKLLILSMAAVLSFSTRLFAVLRFESVIHEFDPYFNYRTTRFLAEEGFYKFHNWFDDRAWYPLGRIIGGTIYPGLMITSAAIYHVLHFFHITIDIRNVCVFLAPLFSSFTTIVTYHLTKELKDAGAGLLAAAMIAVVPGYISRSVAGSYDNEGIAIFCMLLTYYMWIKAVKTGSICWAAKCALAYFYMVSSWGGYVFLINLIPLHVLVLMLTGRFSHRIYVAYCTVYCLGTILSMQISFVGFQPVLSSEHMAAFGVFGLCQIHAFVDYLRSKLNPQQFEVLFRSVISLVGFVLLTVGALLMLTGKISPWTGRFYSLLDPSYAKNNIPIIASVSEHQPTTWSSYYFDLQLLVFMFPVGLYYCFSNLSDARIFIIMYGVTSMYFSAVMVRLMLVLAPVMCILSGIGVSQVLSTYMKNLDISRPDKKSKKQQDSTYPIKNEVASGMILVMAFFLITYTFHSTWVTSEAYSSPSIVLSARGGDGSRIIFDDFREAYYWLRHNTPEDAKVMSWWDYGYQITAMANRTILVDNNTWNNTHISRVGQAMASTEEKAYEIMRELDVSYVLVIFGGLTGYSSDDINKFLWMVRIGGSTDTGKHIKENDYYTPTGEFRVDREGSPVLLNCLMYKMCYYRFGQVYTEAKRPPGFDRVRNAEIGNKDFELDVLEEAYTTEHWLVRIYKVKDLDNRGLSRT
Consider B1, for which, in assay [2], the binding entry is “binds”.

B2: STT3B (enzyme, UniProt Q8TCJ2 1-826)
chain: MAEPSAPESKHKSSLNSSPWSGLMALGNSRHGHHGPGAQCAHKAAGGAAPPKPAPAGLSGGLSQPAGWQSLLSFTILFLAWLAGFSSRLFAVIRFESIIHEFDPWFNYRSTHHLASHGFYEFLNWFDERAWYPLGRIVGGTVYPGLMITAGLIHWILNTLNITVHIRDVCVFLAPTFSGLTSISTFLLTRELWNQGAGLLAACFIAIVPGYISRSVAGSFDNEGIAIFALQFTYYLWVKSVKTGSVFWTMCCCLSYFYMVSAWGGYVFIINLIPLHVFVLLLMQRYSKRVYIAYSTFYIVGLILSMQIPFVGFQPIRTSEHMAAAGVFALLQAYAFLQYLRDRLTKQEFQTLFFLGVSLAAGAVFLSVIYLTYTGYIAPWSGRFYSLWDTGYAKIHIPIIASVSEHQPTTWVSFFFDLHILVCTFPAGLWFCIKNINDERVFVALYAISAVYFAGVMVRLMLTLTPVVCMLSAIAFSNVFEHYLGDDMKRENPPVEDSSDEDDKRNQGNLYDKAGKVRKHATEQEKTEEGLGPNIKSIVTMLMLMLLMMFAVHCTWVTSNAYSSPSVVLASYNHDGTRNILDDFREAYFWLRQNTDEHARVMSWWDYGYQIAGMANRTTLVDNNTWNNSHIALVGKAMSSNETAAYKIMRTLDVDYVLVIFGGVIGYSGDDINKFLWMVRIAEGEHPKDIRESDYFTPQGEFRVDKAGSPTLLNCLMYKMSYYRFGEMQLDFRTPPGFDRTRNAEIGNKDIKFKHLEEAFTSEHWLVRIYKVKAPDNRETLDHKPRVTNIFPKQKYLSKKTTKRKRGYIKNKLVFKKGKKISKKTV
For B2, the binding entry in assay [2] was “binds”.
